The test deals with Saccharomyces cerevisiae BY4743. The test can be described thus: growth (OD600) with compound + IPBC relative to untreated control; higher = less growth inhibition. The note with it: compound concentration: 133 uM; IPBC concentration: 0.5 ug/ml; 20 h. As to the method: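 NMCCC compounds (133 uM) combined with IPBC (0.5 ug/ml) against Saccharomyces cerevisiae BY4743 in YPD, 96-well plates. Growth was read as OD600 at 20 h and expressed as % of the untreated control. Single pass.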

Some of the results follow. Many values rest on one well or one pass, so single values are uncertain.

This passage reports growth results from the supplement of paper PMC8007513.

Take `Cn1cc(S(=O)(=O)N2CCOCC2)cc1C(=O)NCc1ccc(C(F)(F)F)cc1` + CCCCNC(=O)OCC#CI [3-iodo-2-propynyl butylcarbamate (IPBC)]: the growth worked out at 115%.

In the case of `COC(=O)[C@H](CCSC)NC(=O)Nc1ccc(N2CCC(C)CC2)c(Cl)c1` + CCCCNC(=O)OCC#CI [3-iodo-2-propynyl butylcarbamate (IPBC)], the growth was determined as 99.2%.

For `Cc1cc(C)c(NC(=O)CNC(=O)CCc2ccc(C3CC3C)o2)c(C)c1` (stereo unspecified) + CCCCNC(=O)OCC#CI [3-iodo-2-propynyl butylcarbamate (IPBC)], the growth was 104%.

`NC(=O)NC(CC(=O)OCC(=O)c1ccc(F)cc1)c1ccccc1Cl` (stereo unspecified) + CCCCNC(=O)OCC#CI [3-iodo-2-propynyl butylcarbamate (IPBC)]: the growth was 100%.

As for `COC(=O)c1c(C)[nH]c(C(=O)N2CCOC(C)C2)c1C` (stereo unspecified) + CCCCNC(=O)OCC#CI [3-iodo-2-propynyl butylcarbamate (IPBC)], the growth was 99.8%.

As for `CC(=O)c1ccc(NC(=O)c2nc3nc(C)cc(C(F)F)n3n2)cc1` + CCCCNC(=O)OCC#CI [3-iodo-2-propynyl butylcarbamate (IPBC)], the growth amounted to 98.9%.

With `Oc1cc(C(F)(F)F)c2c(-c3ccccc3)noc2n1` + CCCCNC(=O)OCC#CI [3-iodo-2-propynyl butylcarbamate (IPBC)], the growth worked out at 98%.

For `CN1CCc2nc(SCc3cccc(C(F)(F)F)c3)c(C#N)cc2C1` + CCCCNC(=O)OCC#CI [3-iodo-2-propynyl butylcarbamate (IPBC)], the growth was 101%.

`COC(=O)\C1=C\N\C=C(/C1C2=CC=C(OC)C(=C2)O)C(=O)OC` + CCCCNC(=O)OCC#CI [3-iodo-2-propynyl butylcarbamate (IPBC)]: the growth turned out to be 93%.

`COC(=O)C1Cc2ccccc2CN1C(=O)CN(C)CCOc1ccccc1` (stereo unspecified) + CCCCNC(=O)OCC#CI [3-iodo-2-propynyl butylcarbamate (IPBC)]: the growth worked out at 105%.

For the compound `O=C(CCCN1C(=O)CSc2ncccc21)NCC1CCCO1` (stereo unspecified) + CCCCNC(=O)OCC#CI [3-iodo-2-propynyl butylcarbamate (IPBC)], the growth is 104%.

Take `Cc1sc(NC(=O)C2CC2)c(C(=O)OC(C)C(=O)N2CCCC2)c1C` (stereo unspecified) + CCCCNC(=O)OCC#CI [3-iodo-2-propynyl butylcarbamate (IPBC)]: the growth is 96.1%.

In the case of `CCOc1ccc(OCC)c(NC(=O)Nc2ccc3c(c2)N(C)C(=O)CS3)c1` + CCCCNC(=O)OCC#CI [3-iodo-2-propynyl butylcarbamate (IPBC)], the growth was found to be 91.6%.

As for `CN1C(=O)N(C)\C(=C(C#N)/C1=O)OC2=CC=CC3=C2OC(C)(C)C3` + CCCCNC(=O)OCC#CI [3-iodo-2-propynyl butylcarbamate (IPBC)], the growth worked out at 102%.

Regarding `CSc1ncc(Cl)c(C(=O)NC2CC3CCC2(C)C3(C)C)n1` (stereo unspecified) + CCCCNC(=O)OCC#CI [3-iodo-2-propynyl butylcarbamate (IPBC)], the growth is 109%.

For `CCC(C)Nc1nc2c(c(=O)[nH]c(=O)n2C)n1CC(O)COc1ccc(C)cc1` (stereo unspecified) + CCCCNC(=O)OCC#CI [3-iodo-2-propynyl butylcarbamate (IPBC)], the growth was determined as 75.8%.

Turning to `O=C(CCNC(=O)NCc1ccccc1)NC(c1ccccc1)c1cccs1` (stereo unspecified) + CCCCNC(=O)OCC#CI [3-iodo-2-propynyl butylcarbamate (IPBC)], the growth is 110%.

As to `CCC(C)[C@H](N)c1nnc(SCc2ccc(Cl)c(Cl)c2)o1` (stereo partly specified) + CCCCNC(=O)OCC#CI [3-iodo-2-propynyl butylcarbamate (IPBC)], the growth stood at 49.4%.

With `Cc1ccc(N(CCC#N)C(=O)CSc2nnc3c(Cl)cc(Cl)cn23)cc1` + CCCCNC(=O)OCC#CI [3-iodo-2-propynyl butylcarbamate (IPBC)], the growth was determined as 97%.

As to `COC(=O)CC(NC(=O)c1cc(C(C)=O)c[nH]1)c1ccccc1Cl` (stereo unspecified) + CCCCNC(=O)OCC#CI [3-iodo-2-propynyl butylcarbamate (IPBC)], the growth is 98.1%.

`COC1=CC=C2N(C)\C=C(/C(=O)C2=C1)[S](=O)(=O)C3=CC=C(C)C=C3` + CCCCNC(=O)OCC#CI [3-iodo-2-propynyl butylcarbamate (IPBC)]: the growth was found to be 77.8%.

Take `COc1cccc(CN2CCC(NC(=O)c3ccnc(N(C)C)c3)CC2)c1` + CCCCNC(=O)OCC#CI [3-iodo-2-propynyl butylcarbamate (IPBC)]: the growth was 102%.

On to `CC(C)[C@H](NS(=O)(=O)c1ccc2c(c1)OCCO2)C(=O)NC1CCCCCC1` + CCCCNC(=O)OCC#CI [3-iodo-2-propynyl butylcarbamate (IPBC)], for which the growth was 106%.

As to `CCOC(=O)c1c(NC(=O)c2ccccc2)oc2cccnc12` + CCCCNC(=O)OCC#CI [3-iodo-2-propynyl butylcarbamate (IPBC)], the growth was 77.1%.

Take `CC(=O)c1c(C)[nH]c(C(=O)C(C)Oc2ccc(F)c(Cl)c2)c1C` (stereo unspecified) + CCCCNC(=O)OCC#CI [3-iodo-2-propynyl butylcarbamate (IPBC)]: the growth worked out at 102%.

In the case of `CCN(C(=O)c1cc(OC)cc(OC)c1)c1nc2c(C)cccc2s1` + CCCCNC(=O)OCC#CI [3-iodo-2-propynyl butylcarbamate (IPBC)], the growth turned out to be 104%.

For `CC(C)CC(=O)NC(C)C(c1cccs1)N1CCN(c2ccccc2)CC1` (stereo unspecified) + CCCCNC(=O)OCC#CI [3-iodo-2-propynyl butylcarbamate (IPBC)], the growth is 102%.

Take `Cc1ccc(Cl)cc1N1CCN(CCNS(=O)(=O)c2csc(C(N)=O)c2)CC1` + CCCCNC(=O)OCC#CI [3-iodo-2-propynyl butylcarbamate (IPBC)]: the growth turned out to be 97.8%.

Regarding `CC1C2CC(CC(C)(C)C2)N1C/3=C(\Cl)C(=O)N(CC(O)=O)/N=C3` (stereo unspecified) + CCCCNC(=O)OCC#CI [3-iodo-2-propynyl butylcarbamate (IPBC)], the growth was 87.6%.

On to `Cc1ccc(CNc2ccc(-n3nc(C)cc3C)nn2)cc1` + CCCCNC(=O)OCC#CI [3-iodo-2-propynyl butylcarbamate (IPBC)], for which the growth came to 104%.

Take `CC(C)N(C(=O)CSc1nnc(-c2cccnc2)n1-c1cccc(C(F)(F)F)c1)C(C)C` + CCCCNC(=O)OCC#CI [3-iodo-2-propynyl butylcarbamate (IPBC)]: the growth was found to be 101%.

`COc1ccc(C(CC(=O)O)NS(=O)(=O)c2ccc3c(c2)N(C(C)=O)CC(C)O3)cc1` (stereo unspecified) + CCCCNC(=O)OCC#CI [3-iodo-2-propynyl butylcarbamate (IPBC)]: the growth amounted to 101%.

With `NCCCC(=O)OC1\N=C(\C2=CC=CC=C2Cl)C3=CC(=CC=C3NC1=O)Br` (stereo unspecified) + CCCCNC(=O)OCC#CI [3-iodo-2-propynyl butylcarbamate (IPBC)], the growth stood at 94.2%.

`CCN(CC)[S](=O)(=O)C1=CC=C(NC(=O)N\C2=C\N(C)C(=O)C3=CC=CC=C23)C=C1` + CCCCNC(=O)OCC#CI [3-iodo-2-propynyl butylcarbamate (IPBC)]: the growth was 106%.

In the case of `O=C(Nc1cccc(N2CCCS2(=O)=O)c1)C(=O)N[C@H](CO)Cc1ccccc1` + CCCCNC(=O)OCC#CI [3-iodo-2-propynyl butylcarbamate (IPBC)], the growth was 86%.

Consider `CC(C)c1nccn1-c1ccc(NC(=O)c2ccc(N(C)C)cc2)cc1` + CCCCNC(=O)OCC#CI [3-iodo-2-propynyl butylcarbamate (IPBC)], for which the growth was 94.2%.
